# Among all 360,000 compounds or so, about 7,500 (2.1%) were called active. The shares of active, inactive and inconclusive entries below differ from those in the screen. Calls come from the whole dose curve; as a rule, active = well fitted inhibition curve with a large enough effect; inconclusive = small, poorly fitted or top-dose-only effect, or effect the other way; inactive = flat fitted curve, though single readings scatter. A potency beside an inconclusive call is a rough fit, not a confirmed value.
# Assay: Nrf2 qHTS screen for inhibitors; note: nearly all actives have a fitted effect of over 60% in size
# Conditions: A549 ARE-Fluc reporter, luciferase luminescence, 18-24 h; series mostly up to 46 µM
# Method in brief: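 A549 ARE_Fluc cells (5000/well, 5% FBS OPTI-MEM) pre-incubated 2 h, then treated with compounds 18-24 h at 37C/5% CO2 in concentration-response. CellTiter-Fluor viability read first; BugLite luciferase luminescence after 15 min at room temperature gives Nrf2 activity.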
# Potency is the fitted concentration of half-maximal effect.
row,Compound,Potency
1,NC(=O)C1CCN(C(=O)c2ccc(C(F)(F)F)cc2)CC1,inactive
2,Clc1ccc(OCc2nn3c(-c4ccco4)nnc3s2)cc1,"inconclusive: 7.31 µM [falling, partial curve]"
3,CCOC(=O)C1=C(C)N(C[C@@H]2CC[C@@H](Cc3ccc4cc(OC)ccc4c3)O2)C(=O)NC1c1ccc(OC)cc1 (stereo not given in full),"inconclusive: 29.1 µM [falling, single point]"
4,Cc1ccc(NC(=O)c2ccc(OC(=O)COc3cccc(Cl)c3)cc2)cc1,"inconclusive: 13 µM [activator, partial curve]"
5,CC(=O)NC(=S)Nc1ccc(NC(=S)NC(=O)c2cccs2)cc1,inactive
6,CCOc1ccc(-n2c(=O)cc(N3CCN(c4ccc(F)cc4)CC3)[nH]c2=O)cc1,"inconclusive: 29.1 µM [activator, partial curve, poor fit]"
7,COc1ccccc1NC(=O)/C(C#N)=C/C=C/c1ccco1,"inconclusive: 0.326 µM [falling, partial curve, poor fit]"
8,CCOC(=O)N1CCN(S(=O)(=O)c2ccc(F)c(C(=O)Nc3ccc(C)c(Cl)c3)c2)CC1,"inconclusive: 4.61 µM [falling, partial curve, poor fit]"
9,COc1ccc(OC)c(NC(=O)CC2SC(=Nc3ccc(F)cc3)N(CCC3=CCCCC3)C2=O)c1 (stereo not given),"inconclusive: 29.1 µM [falling, single point]"
10,CCOc1cc(/C=C2/C(=O)ON=C2C)ccc1OCc1ccccc1,inactive
11,CC(=O)c1ccc(N2CCN(C3C(=O)c4ccccc4N3C(C)=O)CC2)cc1 (stereo not given),"inconclusive: 25.9 µM [falling, single point]"
12,CCOc1ccc(S(=O)(=O)NC(C)(C)C)cc1-c1nc2c(C(C)(C)C)nn(C)c2c(=O)[nH]1,active: 20.6 µM
13,CCc1cc2c(N3CCN(C(=O)c4ccco4)CC3)ncnc2s1,"inconclusive: 29.1 µM [falling, partial curve, poor fit]"
14,Cc1ccc(S(=O)(=O)Cn2nnnc2C(C(C)C)N2CCN(c3nc4ccccc4s3)CC2)cc1 (stereo not given),"inconclusive: 29.1 µM [falling, single point]"
15,O=S(=O)(c1ccc(Br)cc1)c1nnn2c1nc(NCc1cccs1)c1sccc12,inactive
16,CCCCCN(C(=O)CCC(=O)OCC(=O)c1ccc(C(C)(C)C)cc1)c1c(N)n(CCCC)c(=O)[nH]c1=O,"inconclusive: 20.6 µM [falling, partial curve, poor fit]"
17,CC(C)=C1SC(N2CCCCC2)=NC1=O,"inconclusive: 10.3 µM [activator, partial curve, poor fit]"
18,O=C1CC(Sc2nnc(-c3ccccc3)o2)C(=O)N1c1ccccc1 (stereo not given),inactive
19,COc1ccc(CN2CCN(C(=O)c3cc(OC)c(OC)c(OC)c3)CC2)cc1OC,inactive
20,CCOc1cc(-c2nc(-c3ccc(-c4ccc(OC)cc4)nc3OC)no2)cc(OCC)c1OCC,inactive
21,Cc1c(CCC(=O)O)c(=O)oc2cc(OCc3cccc(F)c3)ccc12,inactive
22,O=S(=O)(c1ccc(-c2csc(Nc3ccc(F)cc3)n2)cc1)N1CCCC1,active: 18.4 µM

# Among those listed so far, these contain a Cl atom:
row,Compound,Potency
2,Clc1ccc(OCc2nn3c(-c4ccco4)nnc3s2)cc1,"inconclusive: 7.31 µM [falling, partial curve]"
4,Cc1ccc(NC(=O)c2ccc(OC(=O)COc3cccc(Cl)c3)cc2)cc1,"inconclusive: 13 µM [activator, partial curve]"
8,CCOC(=O)N1CCN(S(=O)(=O)c2ccc(F)c(C(=O)Nc3ccc(C)c(Cl)c3)c2)CC1,"inconclusive: 4.61 µM [falling, partial curve, poor fit]"

# Additional entries

row,Compound,Potency
1,COc1ccc(-n2cc(C(=O)NCc3cccc(OC)c3)c3ccccc3c2=O)cc1,inactive
2,CC(C)(C)c1ccc(Oc2ccc(N)cn2)cc1,active: 18.4 µM
3,Cc1ccc(Cn2c(C(=O)O)c(CNCCc3ccco3)c3ccc(C)cc32)cc1,"inconclusive: 8.2 µM [activator, partial curve]"
4,COc1ccc(NC(=O)C2C(=O)N(CCO)C3(C)CC2c2ccccc2O3)cc1 (stereo not given),"inconclusive: 11.6 µM [activator, partial curve, poor fit]"
5,O=C(CC1C(=O)NCCN1Cc1cccc(Oc2ccccc2)c1)NCCc1ccccn1 (stereo not given),"inconclusive: 14.6 µM [falling, partial curve, poor fit]"
6,O=C(NC1(C(F)(F)F)NC(=O)N(C2CCCCC2)C1=O)c1ccco1 (stereo not given),"inconclusive: 20.6 µM [falling, partial curve, poor fit]"
7,O=C1c2sc3nc4n(c(=O)c3c2CCC1Br)CCCCC4 (stereo not given),"inconclusive: 6.51 µM [activator, partial curve]"
8,CCN1C(=S)SC(=O)C1=C1C=C(C)N(Cc2ccco2)C(C)=C1,"inconclusive: 0.651 µM [activator, full curve]"
9,Cc1ccc(F)cc1CNC(=O)C1CCC(=O)N(CCCN2CCCC2=O)C1 (stereo not given),"inconclusive: 11.6 µM [activator, partial curve, poor fit]"
10,Cc1ccccc1OCc1nc(-c2ccc(Br)o2)no1,"inconclusive: 29.1 µM [activator, single point]"
11,O=C1C2C3C=CC(C3)C2C(=O)N1CN(Cc1ccccc1)CN1C(=O)C2C3C=CC(C3)C2C1=O (stereo not given),"inconclusive: 1.3 µM [falling, partial curve, poor fit]"
12,O=C(COC(=O)CCCSc1nc2ccccc2[nH]1)Nc1ccc(Oc2ccccc2)cc1,"inconclusive: 29.1 µM [falling, partial curve, poor fit]"
13,COc1ccccc1N1CCN(S(=O)(=O)CCNC(=O)CC2CCCCC2)CC1,"inconclusive: 13 µM [falling, partial curve]"
14,O=c1[nH]c(SCc2ccc(Br)cc2)nc2c1CCCC2,inactive
15,Fc1ccc(F)c(C2=NNC(=NCC3CCCO3)SC2)c1 (stereo not given),"inconclusive: 14.6 µM [activator, partial curve, poor fit]"
16,CC(NC(=O)c1cccs1)c1ccc(Br)cc1 (stereo not given),"inconclusive: 5.8 µM [falling, partial curve, poor fit]"
17,Cc1ccc(S(=O)(=O)c2nnn3c2nc(N2CCN(c4ccccc4F)CC2)c2ccccc23)cc1C,inactive
18,COc1ccc(-n2c(SC(C)C(=O)Nc3ccc(NC(C)=O)cc3)nc3ccccc3c2=O)cc1OC (stereo not given),inactive
19,CC1=C(C(=O)OCc2ccc3c(c2)OCO3)C(c2ccc(O)c([N+](=O)[O-])c2)NC(=O)N1 (stereo not given),"inconclusive: 14.6 µM [falling, partial curve, poor fit]"
20,O=C(CSc1nc2ccccc2c(=O)[nH]1)Nc1ccc(N2CCOCC2)cc1,"inconclusive: 8.2 µM [falling, partial curve, poor fit]"
21,Cc1cccc2sc(N3CCN(C(=O)C4COc5ccccc5O4)CC3)nc12 (stereo not given),"inconclusive: 18.4 µM [falling, partial curve]"
22,O=C(COc1ccc(Cl)cc1Cl)Nc1cccnc1,"inconclusive: 10.3 µM [activator, partial curve]"

row,Compound,Potency
1,CN(CCc1ccccc1)C(=O)c1ccc(NC(=O)Cc2ccc(NC(=O)C3CCCN(C(=O)C4CCCCC4)C3)cc2)cc1 (stereo not given),"inconclusive: 23.1 µM [falling, partial curve, poor fit]"
2,COC(=O)c1ccc(OC)c(CSc2nnc(-c3ccc(C(C)(C)C)cc3)o2)c1,"inconclusive: 32.6 µM [falling, partial curve, poor fit]"
3,Cc1ccc(C(=O)NNC(=O)Cc2ccccc2)cc1,"inconclusive: 29.1 µM [activator, single point]"
4,O=C(N=Nc1c(O)[nH]c2ccccc12)c1ccco1,"inconclusive: 6.51 µM [activator, partial curve]"
5,Cc1c(C(=O)NCCCN2CCOCC2)sc2nc(-c3ccc(F)cc3)cn12,inactive
6,CC(=O)SCCC(=O)Nc1ccccc1,"inconclusive: 20.6 µM [falling, partial curve, poor fit]"
7,O=C(CCc1ccc(O)cc1)c1c(O)cc(O)cc1O,inactive
8,Cc1nc(SCC(=O)c2cccs2)c2oc3ccccc3c2n1,inactive
9,O=C(Nc1ccccc1F)c1ccc(-c2cccc([N+](=O)[O-])c2)o1,"inconclusive: 1.84 µM [falling, full curve]"
10,COc1ccc(NC(=O)C(C)SCc2ccccc2)cc1OC (stereo not given),"inconclusive: 11.6 µM [falling, partial curve, poor fit]"
11,O=c1c(Cl)c(Nc2cccc(Cl)c2)cnn1-c1nc2ccccc2s1,"inconclusive: 1.64 µM [activator, full curve]"
12,N/C(=N\OC(=O)c1cccs1)c1ccccc1,"inconclusive: 8.2 µM [activator, partial curve]"
13,Cc1ccc(S(=O)(=O)NCc2ccc(C(=O)N3CCN(c4ccc([N+](=O)[O-])cc4)CC3)cc2)cc1,active: 5.17 µM
14,CCCc1nc2oc3c(NCCOCCO)ncnc3c2c2c1COC(C)(C)C2,"inconclusive: 5.17 µM [activator, single point]"
15,Cc1ccc(NC(=O)/C=C/c2ccc(S(=O)(=O)N3CCOCC3)cc2)cc1S(=O)(=O)N(C)C,"inconclusive: 16.4 µM [falling, single point]"
16,CS(=O)(=O)c1sc(C(=O)NC(=S)Nc2ccc(OC(F)(F)F)cc2)c2c1C=CCC2,"inconclusive: 23.1 µM [falling, single point]"
17,Cc1nn(-c2ccccc2)c(N2CCCC2)c1/C=N/NC(=S)Nc1cc(C(F)(F)F)ccc1Cl,"inconclusive: 32.6 µM [falling, single point]"
18,CCCc1ccccc1OCCNS(=O)(=O)c1cc2c(cc1C)OCC(=O)N2,"inconclusive: 18.4 µM [falling, single point]"
19,O=C(Nc1ccc(N=Nc2ccccc2)c(NC(=O)C2CCCO2)c1)C1CCCO1 (stereo not given),inactive
20,COc1cccc(NC2SC(=O)N(c3ccccc3)C2=O)c1 (stereo not given),"inconclusive: 10.3 µM [activator, partial curve]"
21,Cc1oc(-c2ccc(Cl)cc2)nc1CSCC(=O)NCCCN1CCOCC1,"inconclusive: 29.1 µM [falling, single point]"
